Results are given in words; binding and its absence hold for the method and conditions named. Some binding calls cover weakened binding; strength is not graded here.

The chains behind the UniProt entries cited, without tags or fusion partners. Where a name states a change or a piece, a line headed by the entry shows the natural chain unless it says otherwise.
UniProt P19137: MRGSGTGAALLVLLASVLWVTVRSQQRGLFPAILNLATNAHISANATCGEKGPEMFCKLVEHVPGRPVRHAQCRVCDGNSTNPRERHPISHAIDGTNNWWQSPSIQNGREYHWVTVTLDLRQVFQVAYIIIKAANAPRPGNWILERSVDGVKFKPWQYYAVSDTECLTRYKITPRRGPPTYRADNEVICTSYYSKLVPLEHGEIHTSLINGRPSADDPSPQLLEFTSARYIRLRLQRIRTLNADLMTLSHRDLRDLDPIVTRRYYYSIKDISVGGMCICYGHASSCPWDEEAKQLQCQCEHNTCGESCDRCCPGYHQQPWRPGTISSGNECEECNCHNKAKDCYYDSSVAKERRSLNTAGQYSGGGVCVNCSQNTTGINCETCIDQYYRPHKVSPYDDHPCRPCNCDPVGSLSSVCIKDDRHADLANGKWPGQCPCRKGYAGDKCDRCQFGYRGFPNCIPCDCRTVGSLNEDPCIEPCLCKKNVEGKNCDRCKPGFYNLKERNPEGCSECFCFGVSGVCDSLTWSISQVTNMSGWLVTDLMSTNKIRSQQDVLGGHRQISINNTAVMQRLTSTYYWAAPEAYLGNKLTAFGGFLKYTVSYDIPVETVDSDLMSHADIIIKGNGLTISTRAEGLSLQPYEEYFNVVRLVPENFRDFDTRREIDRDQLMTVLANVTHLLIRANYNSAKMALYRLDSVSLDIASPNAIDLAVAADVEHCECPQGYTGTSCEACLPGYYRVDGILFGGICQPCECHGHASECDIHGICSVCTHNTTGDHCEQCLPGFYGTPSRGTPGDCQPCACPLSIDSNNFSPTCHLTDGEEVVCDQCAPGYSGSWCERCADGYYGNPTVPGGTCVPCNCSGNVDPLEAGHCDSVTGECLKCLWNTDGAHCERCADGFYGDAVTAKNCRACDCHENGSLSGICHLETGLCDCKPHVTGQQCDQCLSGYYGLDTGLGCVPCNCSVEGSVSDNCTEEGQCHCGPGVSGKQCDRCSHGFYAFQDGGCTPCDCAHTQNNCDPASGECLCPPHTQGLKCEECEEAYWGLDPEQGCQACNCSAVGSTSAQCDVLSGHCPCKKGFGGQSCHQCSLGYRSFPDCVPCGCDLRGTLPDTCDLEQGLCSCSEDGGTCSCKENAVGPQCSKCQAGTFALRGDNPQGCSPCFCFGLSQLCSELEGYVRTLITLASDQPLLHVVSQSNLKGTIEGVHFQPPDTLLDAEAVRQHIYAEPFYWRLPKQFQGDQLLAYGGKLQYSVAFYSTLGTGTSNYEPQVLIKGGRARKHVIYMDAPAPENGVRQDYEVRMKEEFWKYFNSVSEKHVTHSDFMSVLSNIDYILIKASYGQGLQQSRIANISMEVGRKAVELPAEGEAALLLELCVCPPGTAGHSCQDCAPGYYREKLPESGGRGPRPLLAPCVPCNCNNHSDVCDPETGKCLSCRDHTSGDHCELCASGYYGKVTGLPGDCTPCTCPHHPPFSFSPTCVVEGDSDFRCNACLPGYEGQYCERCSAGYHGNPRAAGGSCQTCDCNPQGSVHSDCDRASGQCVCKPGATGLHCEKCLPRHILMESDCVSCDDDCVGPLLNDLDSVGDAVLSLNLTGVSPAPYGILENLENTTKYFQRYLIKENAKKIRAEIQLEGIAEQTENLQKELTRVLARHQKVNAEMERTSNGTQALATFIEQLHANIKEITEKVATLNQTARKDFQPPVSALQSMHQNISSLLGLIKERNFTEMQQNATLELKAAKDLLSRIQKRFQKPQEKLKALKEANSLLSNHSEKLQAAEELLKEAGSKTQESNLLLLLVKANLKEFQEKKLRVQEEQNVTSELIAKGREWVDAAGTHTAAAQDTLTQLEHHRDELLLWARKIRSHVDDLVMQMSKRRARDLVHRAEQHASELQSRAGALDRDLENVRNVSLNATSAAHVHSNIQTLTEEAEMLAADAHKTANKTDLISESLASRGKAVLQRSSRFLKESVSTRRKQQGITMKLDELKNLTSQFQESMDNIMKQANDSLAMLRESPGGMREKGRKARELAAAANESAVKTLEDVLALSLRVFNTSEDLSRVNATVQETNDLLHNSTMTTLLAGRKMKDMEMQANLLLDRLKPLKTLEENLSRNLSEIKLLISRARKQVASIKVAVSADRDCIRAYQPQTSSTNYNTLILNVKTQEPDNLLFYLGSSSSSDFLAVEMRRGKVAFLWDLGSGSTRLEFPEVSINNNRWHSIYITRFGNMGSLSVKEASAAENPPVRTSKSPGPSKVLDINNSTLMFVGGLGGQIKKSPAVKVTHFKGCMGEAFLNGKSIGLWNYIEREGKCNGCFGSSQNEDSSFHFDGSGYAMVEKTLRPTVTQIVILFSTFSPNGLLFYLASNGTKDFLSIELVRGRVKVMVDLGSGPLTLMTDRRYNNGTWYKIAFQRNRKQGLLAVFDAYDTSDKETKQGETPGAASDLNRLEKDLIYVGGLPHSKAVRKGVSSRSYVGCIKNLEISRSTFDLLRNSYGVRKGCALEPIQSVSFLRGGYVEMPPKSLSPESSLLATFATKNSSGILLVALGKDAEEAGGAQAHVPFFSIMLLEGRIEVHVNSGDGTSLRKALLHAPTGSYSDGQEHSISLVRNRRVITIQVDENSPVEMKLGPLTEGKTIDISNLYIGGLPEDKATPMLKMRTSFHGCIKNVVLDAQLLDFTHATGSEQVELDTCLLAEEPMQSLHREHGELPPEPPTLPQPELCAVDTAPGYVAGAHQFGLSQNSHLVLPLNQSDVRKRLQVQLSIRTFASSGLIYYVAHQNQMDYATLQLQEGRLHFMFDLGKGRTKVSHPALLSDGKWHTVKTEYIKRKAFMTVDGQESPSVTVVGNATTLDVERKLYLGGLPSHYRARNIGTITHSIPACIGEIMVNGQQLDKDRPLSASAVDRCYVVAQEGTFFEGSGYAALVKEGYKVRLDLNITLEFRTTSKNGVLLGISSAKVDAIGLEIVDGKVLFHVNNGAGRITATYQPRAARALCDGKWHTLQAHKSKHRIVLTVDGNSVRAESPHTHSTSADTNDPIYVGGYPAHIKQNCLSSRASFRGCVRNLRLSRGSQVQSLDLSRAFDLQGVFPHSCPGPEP
UniProt P02469: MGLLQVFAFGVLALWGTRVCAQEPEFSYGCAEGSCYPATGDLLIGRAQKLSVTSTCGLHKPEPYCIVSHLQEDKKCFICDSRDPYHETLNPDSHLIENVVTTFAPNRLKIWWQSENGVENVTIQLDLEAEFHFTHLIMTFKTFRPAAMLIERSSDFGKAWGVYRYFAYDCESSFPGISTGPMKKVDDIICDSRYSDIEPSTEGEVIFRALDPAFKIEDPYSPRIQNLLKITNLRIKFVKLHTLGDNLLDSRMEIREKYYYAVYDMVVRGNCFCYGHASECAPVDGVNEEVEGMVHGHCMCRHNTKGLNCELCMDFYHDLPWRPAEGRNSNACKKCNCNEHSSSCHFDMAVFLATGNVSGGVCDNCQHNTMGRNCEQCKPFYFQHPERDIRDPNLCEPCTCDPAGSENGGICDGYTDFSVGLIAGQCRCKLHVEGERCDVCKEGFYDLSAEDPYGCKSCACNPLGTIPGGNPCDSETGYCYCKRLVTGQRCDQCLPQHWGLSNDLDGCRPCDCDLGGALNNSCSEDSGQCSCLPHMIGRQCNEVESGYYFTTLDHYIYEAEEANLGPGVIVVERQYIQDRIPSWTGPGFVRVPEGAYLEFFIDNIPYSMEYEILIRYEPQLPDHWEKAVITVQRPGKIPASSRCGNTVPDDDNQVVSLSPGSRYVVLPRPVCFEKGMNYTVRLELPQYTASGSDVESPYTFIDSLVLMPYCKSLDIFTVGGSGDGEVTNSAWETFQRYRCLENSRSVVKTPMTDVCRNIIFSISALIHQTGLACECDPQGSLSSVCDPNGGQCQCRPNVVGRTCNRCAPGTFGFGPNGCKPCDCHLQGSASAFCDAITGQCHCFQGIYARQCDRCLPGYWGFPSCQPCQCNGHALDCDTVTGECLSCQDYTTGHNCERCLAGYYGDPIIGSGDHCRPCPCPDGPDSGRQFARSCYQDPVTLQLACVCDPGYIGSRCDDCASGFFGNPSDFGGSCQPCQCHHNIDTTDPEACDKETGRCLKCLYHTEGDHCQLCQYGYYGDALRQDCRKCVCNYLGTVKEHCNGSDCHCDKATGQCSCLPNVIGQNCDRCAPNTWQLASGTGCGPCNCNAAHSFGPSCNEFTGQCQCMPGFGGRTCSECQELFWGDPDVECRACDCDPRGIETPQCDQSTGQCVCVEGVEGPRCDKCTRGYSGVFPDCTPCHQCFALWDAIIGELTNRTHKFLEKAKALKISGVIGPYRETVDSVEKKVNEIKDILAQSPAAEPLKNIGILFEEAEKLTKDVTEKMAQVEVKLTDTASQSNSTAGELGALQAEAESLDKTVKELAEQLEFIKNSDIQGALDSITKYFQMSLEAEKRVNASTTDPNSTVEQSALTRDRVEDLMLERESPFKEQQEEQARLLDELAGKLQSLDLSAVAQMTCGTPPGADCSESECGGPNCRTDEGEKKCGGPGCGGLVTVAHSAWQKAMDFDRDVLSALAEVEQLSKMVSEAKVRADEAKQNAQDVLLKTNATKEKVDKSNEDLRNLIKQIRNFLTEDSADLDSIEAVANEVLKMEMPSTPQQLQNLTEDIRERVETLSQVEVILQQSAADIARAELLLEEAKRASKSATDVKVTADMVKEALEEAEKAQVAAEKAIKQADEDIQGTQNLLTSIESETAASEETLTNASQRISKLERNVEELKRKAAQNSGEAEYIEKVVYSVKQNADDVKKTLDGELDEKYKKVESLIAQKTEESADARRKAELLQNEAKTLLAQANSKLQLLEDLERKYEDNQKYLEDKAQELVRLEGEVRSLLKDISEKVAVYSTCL
UniProt P02468: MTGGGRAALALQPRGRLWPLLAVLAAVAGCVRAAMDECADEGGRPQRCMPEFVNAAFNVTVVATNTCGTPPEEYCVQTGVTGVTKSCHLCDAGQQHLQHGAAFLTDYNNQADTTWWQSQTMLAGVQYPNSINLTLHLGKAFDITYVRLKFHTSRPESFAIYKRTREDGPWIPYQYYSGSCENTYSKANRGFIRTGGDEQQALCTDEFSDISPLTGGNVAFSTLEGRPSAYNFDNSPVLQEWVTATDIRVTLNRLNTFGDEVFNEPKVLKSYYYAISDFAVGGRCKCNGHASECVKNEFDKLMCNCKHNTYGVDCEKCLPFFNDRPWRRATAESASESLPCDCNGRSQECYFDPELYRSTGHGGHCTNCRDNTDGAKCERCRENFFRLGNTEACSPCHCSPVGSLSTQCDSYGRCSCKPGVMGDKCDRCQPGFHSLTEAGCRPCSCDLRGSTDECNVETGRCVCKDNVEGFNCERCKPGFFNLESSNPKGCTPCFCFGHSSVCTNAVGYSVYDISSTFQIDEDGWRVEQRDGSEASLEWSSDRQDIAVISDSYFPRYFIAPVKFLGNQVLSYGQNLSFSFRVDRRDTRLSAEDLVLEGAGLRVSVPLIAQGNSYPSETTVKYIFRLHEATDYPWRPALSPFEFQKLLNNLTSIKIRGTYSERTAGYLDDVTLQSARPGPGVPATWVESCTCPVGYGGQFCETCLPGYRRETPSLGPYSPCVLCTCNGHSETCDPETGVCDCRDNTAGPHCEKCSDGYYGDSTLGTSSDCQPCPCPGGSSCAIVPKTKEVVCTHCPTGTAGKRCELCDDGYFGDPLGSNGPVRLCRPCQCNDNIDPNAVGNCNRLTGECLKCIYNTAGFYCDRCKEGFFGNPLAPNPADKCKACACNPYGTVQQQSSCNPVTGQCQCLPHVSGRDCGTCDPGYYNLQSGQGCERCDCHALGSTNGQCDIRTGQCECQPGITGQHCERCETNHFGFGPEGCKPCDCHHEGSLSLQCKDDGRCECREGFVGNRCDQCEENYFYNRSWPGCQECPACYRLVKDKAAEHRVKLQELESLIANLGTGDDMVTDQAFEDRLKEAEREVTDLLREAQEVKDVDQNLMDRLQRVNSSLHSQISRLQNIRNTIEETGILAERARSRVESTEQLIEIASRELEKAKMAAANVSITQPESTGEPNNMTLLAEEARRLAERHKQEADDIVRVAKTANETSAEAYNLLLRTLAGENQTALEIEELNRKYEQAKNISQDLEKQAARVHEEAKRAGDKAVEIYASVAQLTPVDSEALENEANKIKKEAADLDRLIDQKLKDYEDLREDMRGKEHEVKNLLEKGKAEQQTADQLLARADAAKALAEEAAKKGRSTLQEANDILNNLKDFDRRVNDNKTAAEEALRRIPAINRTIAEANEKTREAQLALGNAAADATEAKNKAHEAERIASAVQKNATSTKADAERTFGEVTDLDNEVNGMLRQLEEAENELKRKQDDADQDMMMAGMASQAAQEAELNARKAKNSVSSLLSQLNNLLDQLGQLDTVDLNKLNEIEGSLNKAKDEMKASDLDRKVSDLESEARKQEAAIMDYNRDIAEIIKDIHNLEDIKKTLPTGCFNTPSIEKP

For this test, the target named is mouse Engelbreth-Holm-Swarm (EHS) laminin (mouse) (UniProt P19137+P02469+P02468). Put plainly: laminin overlay assay on PVDF membrane.

B1: purified recombinant rabbit alpha-dystroglycan glycosylated by LARGE (from HEK293-aDG/L cells) (receptor, UniProt Q28685 30-653, looked up)
chain: HWPSEPSEAVRDWENQLEASMHSVLSDLHEALPTVVGIPDGTAVVGRSFRVTIPTDLIGSSGEVIKVSTAGKEVLPSWLHWDPQSHTLEGLPLDTDKGVHYISVSAAQLDANGSHIPQTSSVFSIEVYPEDHSEPQSVRAASPDLGEAAASACAAEEPVTVLTVILDADLTKMTPKQRIDLLHRMQSFSEVELHNMKLVPVVNNRLFDMSAFMAGPGNAKKVVENGALLSWKLGCSLNQNSVPDIRGVEAPAREGTMSAQLGYPVVGWHIANKKPPLPKRIRRQIHATPTPVTAIGPPTTAIQEPPSRIVPTPTSPAIAPPTETMAPPVRDPVPGKPTVTTRTRGAIIQTPTLGPIQPTRVSDAGTVVSGQIRATVTIPGYVEPTAVATPPTTTTKKPRVSTPKPATPSTDSSATTTRRPTKKPRTPRPVPRVTTKAPITRLETASPPTRIRTTTSGVPRGGEPNQRPELKNHIDRVDAWVGTYFEVKIPSDTFYDKEDTTTDKLKLTLKLREQQLVGEKSWVQFNSNSQLMYGLPDSSHVGKHEYFMHATDKGGLSAVDAFEIHVHKRPQGDKAPARFKAKFVGDPAPVVNDIHKKIALVKKLAFAFGDRNCSTVTLQNITRG
modifications: glycosylated by LARGE (co-expressed human LARGE); sites not given
Turning to B1, the binding result is “binds”.

The record behind these values is patent US20110166081A1 (UNIVERSITY OF IOWA RESEARCH FOUNDATION, published 2011).
